For this assay, the target named is VLDLR(28–797)Δ(751–779)-C-tag (VLDLR ectodomain) (human) (UniProt P98155). Nature of the assay: ELISA; plate coated with 10 µg/ml VLDLR-ed; Clu or RAP in TBS-C pH 7.4, 2 mM CaCl2, 2% BSA, 0.05% Tween-20, 1 h at room temperature; background binding to BSA subtracted; one-site specific binding fit; both purified.

No constants are given. Whether binding was seen depends on the method and setting. Binding can be weak; no strength is given.

As to “Clu mutant CC4 (from UniProt P10909 23-227; P10909 228-449)”, the binding entry is listed as “binds”.

(Values after article PMC12527946.)
